Some of the results follow. Shown are side measurements of this screen, not its main read-out; they come without a call. Most of these compounds were active or inconclusive in the main read-out, so they are no random draw. Potencies come from curve fits of mixed quality, noted in brackets.
Assay: qHTS Assay for Lipid Storage Modulators in Drosophila S3 Cells;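 on cell number change: cells counted by Cell Tracker Red CMTPX staining in the red channel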
Conditions: BODIPY lipid droplet fluorescence, 18-24 h; for cell number change: measured here: cell count max response, cells fed with added oleic acid
Outline: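 Drosophila S3 cells got compounds at several concentrations plus oleic acid (400 uM solution). Laser-scanning cytometry with 488 nm excitation read lipid droplets at 500-530 nm and cells at 575-640 nm. Percent activity was relative to 20 uM Triacsin C.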

[1] = measured here: cell number channel AC50, cells fed with added oleic acid
[2] = measured here: lipid fluorescence (Fed channel) AC50, cells fed with added oleic acid

SMILES: Cc1noc(C)c1C(=O)N1CCN(C(=O)c2sc3cc(Cl)ccc3c2Cl)CC1
- AC50 [1]: 0.58 µM [rising, full curve]
- AC50 [2]: 0.82 µM [rising, full curve]

SMILES: CCc1ccc(-c2cc(C(=O)NCc3ccco3)c3ccccc3n2)s1
- cell number change: 1.35%
- AC50 [2]: 29.1 µM [falling, single point]

SMILES: COC(=O)C1=C(C)NC(C)=C(C(=O)OC)C1C(=O)OCc1nnc(-c2ccccc2Cl)o1
- cell number change: -95.9%
- AC50 [1]: 32.6 µM [falling, partial curve]
- AC50 [2]: 5.17 µM [falling, partial curve]

SMILES: C/C(=N\NC(=O)c1ccccc1NC(=O)c1ccc(Cl)cc1)c1ccncc1
- cell number change: 11.6%
- AC50 [2]: 0.00461 µM [rising, full curve, poor fit]

SMILES: CC(C)N=C(NS(=O)(=O)NC(=O)c1ccccc1)c1ccccc1
- cell number change: 14.5%
- AC50 [1]: 6.51 µM [falling, single point]
- AC50 [2]: 6.51 µM [falling, single point]

SMILES: COC(=O)C1=CN(c2ccc(Cl)cc2)C=C(C(=O)OC)C1c1ccc([N+](=O)[O-])cc1
- cell number change: 21.1%
- AC50 [2]: 6.51 µM [rising, single point]

SMILES: C=CCNC(=S)NNC(=O)c1ccc(OC(C)C)cc1
- AC50 [1]: 1.16 µM [rising, full curve]
- AC50 [2]: 1.03 µM [rising, full curve]

SMILES: N#CC1=C(N)Oc2n[nH]c(-c3ccccc3)c2C1c1ccncc1 (stereo unspecified)
- cell number change: -4.43%
- AC50 [2]: 0.13 µM [rising, full curve, poor fit]

SMILES: CCC(=O)N1CCC2(CC1)Oc1ccc(Cl)cc1C(=O)C21CC(c2cccnc2)=NO1 (stereo unspecified)
- cell number change: -38.9%
- AC50 [1]: 29.1 µM [falling, single point]
- AC50 [2]: 29.1 µM [falling, single point]

SMILES: COc1ccc(CC(=O)OCC(=O)NC2CCCCCC2)cc1OC
- cell number change: 1.5%

SMILES: O=C(Nc1cccc(Oc2ccc(C(=O)O)c(C(=O)O)c2)c1)c1ccc(-c2ccccc2)cc1
- cell number change: -10.8%
- AC50 [2]: 1.16 µM [falling, full curve, poor fit]

SMILES: C/C(=N\N(c1ccccc1)c1ccccc1)c1ccc(O)cc1
- cell number change: -13%

SMILES: CC(C)c1ccc(NC(=O)c2ccc(NC3=NC4CS(=O)(=O)CC4S3)cc2)cc1 (stereo unspecified)
- cell number change: 47%
- AC50 [1]: 29.1 µM [rising, single point]
- AC50 [2]: 2.91 µM [falling, partial curve, poor fit]

SMILES: CCCNC(=O)Cn1sc2nc(C)cc(C)c2c1=O
- cell number change: -56.5%
- AC50 [1]: 23.1 µM [falling, single point]
- AC50 [2]: 16.4 µM [falling, partial curve]

SMILES: O=C(CSc1ncn[nH]1)Nc1nc(-c2ccccc2)ns1
- cell number change: -16%

SMILES: CC1CCCCN1S(=O)(=O)c1ccc(S(=O)(=O)N2CCCC2)cc1 (stereo unspecified)
- cell number change: 17.9%
- AC50 [2]: 29.1 µM [falling, partial curve]

SMILES: CCSc1cnn(-c2ccccc2)c(=O)c1SCC
- AC50 [2]: 0.651 µM [falling, single point]

SMILES: CN(C(=O)COC(=O)c1ccc(Cl)c(S(=O)(=O)N2CCCCC2)c1)C1(C#N)CCCCC1
- cell number change: 9.87%
- AC50 [1]: 6.51 µM [falling, single point]

SMILES: COc1cc(C(=O)N2CC(C)OC(C)C2)c([N+](=O)[O-])cc1OC (stereo unspecified)
- cell number change: -53.6%
- AC50 [1]: 14.6 µM [falling, partial curve, poor fit]

SMILES: COc1ccc(C2(c3ccc(OC)cc3)NC(=O)N(CC(=O)N(C)C)C2=O)cc1
- cell number change: 10.4%
- AC50 [2]: 29.1 µM [rising, single point]

SMILES: Cc1nnc(N(C(=O)c2cnccn2)c2ccccc2)s1
- cell number change: 14.5%
- AC50 [2]: 6.51 µM [rising, single point]

SMILES: Cc1ccc(S(=O)(=O)N(C)c2ccc(OC(=O)CN3C(=O)NC4(CCCC4)C3=O)cc2)cc1C
- cell number change: 4.75%
- AC50 [2]: 16.4 µM [falling, single point]

SMILES: O=C(CNCc1ccccn1)Nc1ccc([N+](=O)[O-])cc1C(=O)Nc1ccccc1F
- cell number change: 21%
- AC50 [2]: 6.51 µM [falling, single point]

SMILES: CN(C)C=C1C(=O)c2ccccc2C1=O
- cell number change: 2.92%

SMILES: CCc1ccccc1NC(=O)N[C@H](C(=O)O)C(C)C
- cell number change: 36.7%
- AC50 [1]: 1.16 µM [rising, full curve, poor fit]
- AC50 [2]: 3.66 µM [falling, full curve]

SMILES: O=C(CCN1CCN(c2ccccc2F)CC1)Nc1cccc(F)c1
- cell number change: 10.2%
- AC50 [1]: 0.731 µM [rising, full curve, poor fit]
- AC50 [2]: 29.1 µM [falling, single point]

SMILES: C=CCc1ccccc1OCC(O)CN1CCN(C(=O)OCC)CC1 (stereo unspecified)
- cell number change: -24.9%

SMILES: O=C(COC(=O)CNC(=O)c1ccccc1Cl)Nc1ncc(C(F)(F)F)cc1Cl
- cell number change: 50.3%
- AC50 [1]: 3.26 µM [rising, full curve]

SMILES: Cc1cc(-c2ccc(C(C)C)c(S(=O)(=O)N3CCN(c4ccccc4)CC3)c2)on1
- cell number change: 33.1%
- AC50 [1]: 32.6 µM [rising, single point]

SMILES: O=C(Nc1ccc(Br)cc1)c1cccc(-n2cnnn2)c1
- cell number change: 7.26%
- AC50 [2]: 29.1 µM [falling, single point]

SMILES: O=C(NCCCN1CCCC1=O)c1cccc(NS(=O)(=O)c2ccc(Br)cc2)c1
- cell number change: 92%
- AC50 [1]: 13 µM [rising, partial curve]

SMILES: COc1ccc(Cl)cc1C(=O)Nc1ccc(Br)c(C)n1
- cell number change: 27%

SMILES: CC1=C([N+](=O)[O-])C(c2ccc(Cl)cc2)NC(=O)N1C (stereo unspecified)
- cell number change: -5.61%

SMILES: O=C1OC(CC(=O)N(Cc2nnc(-c3ccccc3Cl)o2)C2CC2)c2ccccc21 (stereo unspecified)
- cell number change: -29.4%
- AC50 [2]: 0.00461 µM [falling, full curve, poor fit]

SMILES: CC(=O)Nc1cc(C(=O)CSc2nnc(C3CC3)n2C2CC2)ccc1O
- cell number change: 41.2%
- AC50 [1]: 29.1 µM [rising, single point]
- AC50 [2]: 29.1 µM [rising, single point]

SMILES: COCCNC(=O)Cn1cc(C(=S)N2CCOCC2)c2ccccc21
- cell number change: -39.2%
- AC50 [1]: 29.1 µM [falling, single point]

SMILES: O=[N+]([O-])c1cccc(S(=O)(=O)c2ccc(NCCOCCO)c([N+](=O)[O-])c2)c1
- cell number change: 9.91%
- AC50 [2]: 0.58 µM [rising, single point]

SMILES: COc1ccc(/C=C2\SC(=O)N(CC(=O)NC3C=CS(=O)(=O)C3)C2=O)cc1 (stereo unspecified)
- cell number change: 20.2%
- AC50 [2]: 13 µM [rising, partial curve]

SMILES: CCOC(=O)c1c(NC(=S)NC(=O)c2cnn(CC)c2)sc2c1CCC(C)C2 (stereo unspecified)
- cell number change: -17.8%
- AC50 [2]: 0.651 µM [rising, single point]

SMILES: O=C(O)Cn1c(=O)c2c(c3ccccc31)CCC2
- cell number change: 17.4%
- AC50 [2]: 1.64 µM [falling, partial curve, poor fit]

SMILES: Cc1cc(Nc2cccc(Cl)c2)nc(NCc2ccccc2)n1
- AC50 [2]: 6.51 µM [falling, single point]

SMILES: COc1ccc(Cl)cc1C(=O)NNC(=O)CCNC(C)=O
- AC50 [2]: 0.103 µM [falling, partial curve, poor fit]

SMILES: COc1ccc(CCNC(=O)c2ccc3c(c2)OCO3)cc1
- cell number change: 0.901%
- AC50 [2]: 29.1 µM [rising, single point]

SMILES: Cc1ccc(-c2cc(-c3cccc(F)c3)n[nH]2)c(O)c1
- cell number change: -56.7%
- AC50 [1]: 29.1 µM [falling, single point]
- AC50 [2]: 2.59 µM [rising, partial curve]

SMILES: COCCc1nc2ccc(C(=O)N3CCCCC3COC)cc2o1 (stereo unspecified)
- cell number change: 9.17%

SMILES: O=c1[nH][nH]c(-c2ccccc2)c1C=Nc1ccc(C(F)(F)F)cc1
- cell number change: -51.6%
- AC50 [1]: 29.1 µM [falling, single point]

SMILES: CC(C)C[C@H](NC(=O)c1[nH]cnc1C(=O)N[C@@H](Cc1ccccc1)C(=O)OC(C)(C)C)C(=O)OCc1ccccc1
- cell number change: 25.1%
- AC50 [2]: 10.3 µM [falling, partial curve]

SMILES: CCNC(=O)COc1ccc2ccccc2c1
- cell number change: -27.7%
- AC50 [2]: 0.0058 µM [falling, full curve, poor fit]

SMILES: Cc1noc(C)c1COC(=O)/C=C/c1ccc(Cl)cc1
- AC50 [1]: 5.17 µM [falling, single point]
- AC50 [2]: 3.66 µM [falling, partial curve]

SMILES: CSc1ccccc1C(=O)NC1CC2CCC1C2 (stereo unspecified)
- AC50 [1]: 0.103 µM [falling, full curve, poor fit]
- AC50 [2]: 2.31 µM [falling, single point]

SMILES: NC(=O)C1CCN(C(=O)c2ccc([N+](=O)[O-])cc2NC(=O)c2cccs2)CC1
- cell number change: -29.5%
- AC50 [2]: 6.51 µM [falling, single point]

SMILES: CN(C)CCNC(=O)c1[nH]nc2c1CCc1ccccc1-2
- cell number change: 13.1%
- AC50 [2]: 0.651 µM [falling, full curve, poor fit]

SMILES: COC(=O)[C@H](Cc1ccccc1)NC(=O)NCCc1ccc(OC)cc1
- cell number change: 43.2%
- AC50 [1]: 1.84 µM [rising, full curve]
- AC50 [2]: 29.1 µM [rising, single point]

SMILES: CCOc1cccc2cc(C(=O)OCC(=O)Nc3c(C)cccc3CC)c(=O)oc12
- cell number change: 68%
- AC50 [1]: 20.6 µM [rising, single point]

SMILES: COc1ccc(C(C(=O)NC2CCCCC2)N(C(=O)c2ccco2)c2ccccc2OC)cc1 (stereo unspecified)
- cell number change: -2.86%
- AC50 [2]: 6.51 µM [falling, single point]

SMILES: O=C(CN1CCN(c2ccccc2)CC1)Nc1ccc(F)cc1
- cell number change: 26.6%
- AC50 [2]: 6.51 µM [rising, full curve, poor fit]

SMILES: O=C(c1ccc(NS(=O)(=O)c2cccc(C(F)(F)F)c2)cc1)N1CCCC1
- cell number change: -5.49%
- AC50 [2]: 0.00461 µM [falling, full curve, poor fit]

SMILES: COc1ccc(C2CC(=O)N3CN(c4ccccc4F)CSC3=C2C#N)cc1OC (stereo unspecified)
- cell number change: 2.73%
- AC50 [1]: 6.51 µM [rising, single point]
- AC50 [2]: 0.116 µM [falling, full curve, poor fit]

From PubChem BioAssay AID2685 (National Center for Advancing Translational Sciences (NCATS), 2010)
